For part of its entries the source gives two or more results. They are shown here; other results are not. An entry can have further records. Values given together differ for a reason that is not stated; dose, time, organism, isomer or construct need not be as stated for each record.
Key:
[1] = target: human Brd4 BD1 (Homo sapiens, UniProt O60885); assay: HTRF assay, inhibition of H4ac4 peptide binding; settings: Fig 1D/2A original data; single experiments Exp1-3
[2] = target: human Brd4 BD2 (Homo sapiens, UniProt O60885); assay: HTRF assay, inhibition of H4ac4 peptide binding; settings: Fig 1D/2A original data; single experiments Exp1-3

SMILES | pIC50 hBrd4 BD1 [1] | pIC50 hBrd4 BD2 [2]
COc1cccc(NC(=O)Cn2ccc3ccc(-c4nnc(C)o4)cc32)c1 | ≤ 4.4 and 4.499 | 
Cn1nccc1C(=O)NCc1ccc(-c2nc(-c3cccs3)no2)s1 [Compound 63] |  | ≤ 4 and 4.535
COc1cc2nc(C(=O)N3CCCCC3)cc(Nc3ccc(Br)cc3)c2cc1OC | ≤ 4.4 and ≤ 4 | 4.662, ≤ 4.4, 4.852

From PMC11904993, “Humanized Candida and NanoBiT Assays Expedite Discovery of Bdf1 Bromodomain Inhibitors With Antifungal Potential” (Advanced Science, 2025)
